Some of the results follow. Shown are side measurements of this screen, not its main read-out; they come without a call. The list favours compounds with an active or inconclusive main result. The note in brackets gives the kind of curve behind each potency; many fits are weak.
Assay: qHTS Assay for Modulators of Lamin A Splicing
Conditions: HeLa LMNA splicing GFP/RFP minigene ratio, 48 h
Summary of the method: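 S3 HeLa cells stably expressing lamin A-EGFP splicing minigene plus DsRed2, 600 cells/well, 48 h compound exposure at 37C. Laser-scanning cytometry; analysed as GFP (500-530 nm)/RFP (575-640 nm) total intensity ratio; 0.5% DMSO vehicle.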

[1] = measured here: GFP splicing reporter channel
[2] = measured here: RFP viability control channel

Row | SMILES | AC50 [1] | AC50 [2]
1 | O=C(CSc1nc2c([nH]c3ccccc32)c(=O)n1-c1cccc(C(F)(F)F)c1)N1CCc2ccccc21 | 11.2 µM [falling, partial curve] | 17.8 µM [falling, partial curve, poor fit]
2 | CC(NC(=O)CCn1c(=S)[nH]c2ccsc2c1=O)c1ccccc1 (configuration not stated) |  | 35.5 µM [falling, single point]
3 | CC(C)(C)c1ccc(C(=O)NCc2ccccc2)cc1 |  | 0.447 µM [falling, partial curve]
4 | CC(C)c1ccc(NC(=O)CSc2nc3ccccc3nc2Cc2ccccc2)cc1 | 1.41 µM [rising, partial curve] | 2.51 µM [rising, single point]
5 | O=C(N/N=C/c1c[nH]c2ccccc12)C1CC1(c1ccccc1)c1ccccc1 (configuration not stated) | 22.4 µM [falling, single point] | 
6 | COc1ccc(-c2cc(C(=O)NN)n(-c3ccccc3)n2)cc1 |  | 0.0316 µM [rising, full curve, poor fit]
7 | O=C(Cc1ccc(Cl)c(Cl)c1)OCC(=O)c1ccc[nH]1 | 12.6 µM [rising, single point] | 
8 | O=C(N/N=C/c1cc2ccccc2nc1Cl)[C@H]1C[C@@H]1c1ccccc1 | 3.55 µM [rising, full curve, poor fit] | 12.6 µM [rising, partial curve]
9 | NC(=O)c1ccsc1NC(=O)c1nc(-c2ccccc2)n(-c2ccccc2)n1 |  | 20 µM [rising, single point]
10 | CC(C)c1ccccc1NC(=O)COc1ccc(C(=O)NCCc2ccccc2)cc1 | 35.5 µM [falling, single point] | 35.5 µM [falling, single point]
11 | Cc1ccc2nc(/C(C#N)=C\c3ccc(N4CCOCC4)o3)[nH]c2c1 | 15.8 µM [falling, partial curve] | 11.2 µM [falling, partial curve]
12 | O=C(CSc1nc(O)c(Cc2ccccc2)c(=O)[nH]1)Nc1nc2c(s1)CCCC2 |  | 0.794 µM [rising, full curve]
13 | COc1ccc(-c2nc3cnc(N4CCNCC4)nc3n(Cc3cccs3)c2=O)cc1 | 17.8 µM [falling, single point] | 15.8 µM [falling, partial curve]
14 | Cc1cc(N=Nc2ccccc2)c(NCC(O)C(O)C(O)CO)cc1C (configuration not stated) | 12.6 µM [falling, single point] | 11.2 µM [falling, partial curve]
15 | CCOC(=O)c1ccc(NC(=O)CNC(=O)C2CCCCC2)cc1 | 35.5 µM [rising, single point] | 
16 | COCCn1c(SCC(=O)Nc2sc(C)c(C)c2C#N)nnc1-c1ccc(OC)cc1 | 11.2 µM [rising, partial curve] | 11.2 µM [rising, single point]
17 | COc1cccc2sc(NNC(=O)c3nc4ccccc4s3)nc12 | 4.47 µM [rising, single point] | 3.55 µM [rising, single point]
18 | CC1CCCCC1NS(=O)(=O)c1ccc(S(=O)(=O)NCc2ccncc2)cc1 (configuration not stated) | 0.178 µM [rising, full curve, poor fit] | 1.41 µM [rising, full curve]
19 | CCC[C@@H](NS(=O)(=O)c1ccc(C)cc1)C(=O)Oc1ccc2c3c(c(=O)oc2c1)CCC3 |  | 14.1 µM [rising, partial curve, poor fit]
20 | COc1ccc2[nH]cc(CCNc3ncnc4ccc(-c5cccnc5)cc34)c2c1 | 22.4 µM [falling, partial curve] | 25.1 µM [falling, partial curve]
21 | COc1ccc2[nH]cc(CCNC(=O)c3cnn(-c4ccc(C)cc4)c3C3CCN(C(=O)OC(C)(C)C)CC3)c2c1 | 10 µM [falling, partial curve, poor fit] | 12.6 µM [falling, partial curve, poor fit]
22 | CCn1c2ccccc2c2cc(NC(=S)N3CCOCC3)ccc21 | 35.5 µM [falling, single point] | 
23 | Cc1nn(C(=O)Cn2cc([N+](=O)[O-])cn2)c(C)c1Cl |  | 0.00355 µM [rising, full curve, poor fit]
24 | COc1cc(CCC(=O)Nc2cccc(S(=O)(=O)N(C)C)c2)cc(OC)c1OC | 11.2 µM [rising, partial curve] | 14.1 µM [rising, single point]
25 | COc1ccc(Cl)cc1NC(=O)C(C)N(C)Cc1cccc(Cl)c1Cl (configuration not stated) |  | 35.5 µM [rising, single point]
26 | COc1ccc(C(=O)CCNc2ccc3c(c2)OCCO3)cc1 |  | 0.447 µM [falling, partial curve, poor fit]
27 | COc1cc([N+](=O)[O-])cc(/C=N/NC(=O)C(C)Nc2ccccc2C)c1O (configuration not stated) |  | 22.4 µM [rising, single point]

Ordered by number of heavy atoms (smallest number first): part of the list above
Row | SMILES | AC50 [1] | AC50 [2]
6 | COc1ccc(-c2cc(C(=O)NN)n(-c3ccccc3)n2)cc1 |  | 0.0316 µM [rising, full curve, poor fit]
2 | CC(NC(=O)CCn1c(=S)[nH]c2ccsc2c1=O)c1ccccc1 (configuration not stated) |  | 35.5 µM [falling, single point]
11 | Cc1ccc2nc(/C(C#N)=C\c3ccc(N4CCOCC4)o3)[nH]c2c1 | 15.8 µM [falling, partial curve] | 11.2 µM [falling, partial curve]

The list continues:

Row | SMILES | AC50 [1] | AC50 [2]
28 | CC(=O)OC(C(=O)Nc1ccccc1)C(C)S(=O)(=O)c1ccccc1 (configuration not stated) |  | 12.6 µM [rising, partial curve]
29 | CCn1c(=O)cc(SCC(=O)NCCCN2CCN(c3ccc(F)cc3)CC2)c2ccccc21 | 17.8 µM [rising, partial curve] | 35.5 µM [rising, single point]
30 | N#CC1=C(Nc2ccc(Br)cc2)CCC1 |  | 0.0282 µM [falling, full curve, poor fit]
31 | Cc1cccc(NC(=O)COC(=O)c2ccccc2-c2nc3ccccc3s2)c1C |  | 22.4 µM [rising, single point]
32 | CCC(=O)N1CCc2cc(CNC(=O)Cc3ccc(F)cc3)ccc21 | 14.1 µM [rising, single point] | 
33 | O=C(Nc1cc(N2CCOCC2)ncn1)NC1(C(F)(F)F)Oc2ccc(Cl)cc2O1 (configuration not stated) |  | 17.8 µM [rising, partial curve]
34 | COc1ccc(CCNC(=O)C(C)Sc2ccc(C)cc2)cc1OC (configuration not stated) |  | 17.8 µM [rising, partial curve]
35 | CC(=O)Nc1cccc(/C(C)=N\NC(=O)c2ccc(Cn3nc([N+](=O)[O-])c(Cl)c3C)o2)c1 |  | 6.31 µM [rising, partial curve]
36 | CCOC(=O)c1cnc(SCC(=O)N2CCN(c3ccccc3)CC2)nc1N |  | 3.55 µM [rising, partial curve, poor fit]
37 | Cc1cccc(OCCn2c(NC(=O)c3ccco3)nc3ccccc32)c1 |  | 17.8 µM [rising, single point]
38 | CCCCC(=O)N1CCN(c2ccc(OC)cc2[N+](=O)[O-])CC1 |  | 15.8 µM [rising, single point]
39 | O=C1c2ccccc2NC(c2ccc(-c3cccc([N+](=O)[O-])c3)o2)N1O (configuration not stated) | 35.5 µM [rising, single point] | 35.5 µM [rising, single point]
40 | Cc1ccc(NC(=O)c2cc(S(=O)(=O)NC3CCCCC3)ccc2F)cc1Cl | 0.0447 µM [falling, full curve, poor fit] | 0.0224 µM [falling, full curve]
41 | O=C(N/N=C/c1ccc(-c2cccc(C(F)(F)F)c2)o1)c1ccccc1Br | 8.91 µM [falling, single point] | 20 µM [falling, single point]
42 | Cc1ccc(S(=O)(=O)N2c3ccccc3CC2C)cc1 (configuration not stated) | 3.16 µM [rising, partial curve, poor fit] | 2.51 µM [rising, partial curve]
43 | COc1cccc(CN2CCC(N(CCc3ccccc3)Cc3ccccc3)CC2)c1OC | 7.94 µM [rising, partial curve] | 11.2 µM [rising, partial curve]
44 | CCOC(=O)c1ccc2[nH]c(C)c(CCC(C)=O)c(=O)c2c1 | 0.355 µM [falling, full curve, poor fit] | 0.00562 µM [falling, full curve, poor fit]
45 | CC(=O)O[C@]1(C(C)=O)CC[C@H]2C3C=C(Cl)C4=CC(=O)[C@@H]5C[C@H]5[C@]4(C)C3CC[C@@]21C (some centres not stated) | 0.398 µM [falling, full curve, poor fit] | 0.000794 µM [falling, full curve, poor fit]
46 | O=C(c1sc2ccccc2c1Cl)N1CCN(c2ncccn2)CC1 |  | 35.5 µM [rising, single point]
47 | Cn1c(=O)oc2cc(S(=O)(=O)N3CCCC(C(=O)N4CCc5ccccc5C4)C3)ccc21 (configuration not stated) |  | 12.6 µM [rising, partial curve]
48 | Cc1ccc(OCCNC(=O)c2cc(C(=O)NCCOc3ccc(C)cc3)cc([N+](=O)[O-])c2)cc1 | 22.4 µM [rising, single point] | 35.5 µM [rising, single point]
49 | COc1c(Br)cc2c(C)c(C(=O)O)oc2c1Br | 14.1 µM [rising, single point] | 
50 | O=C(Oc1ccc2ccccc2c1Cl)N1CCCCCC1 |  | 17.8 µM [rising, partial curve, poor fit]
51 | C[n+]1ccccc1COc1ccc(C(C)(C)C)cc1 | 11.2 µM [rising, partial curve, poor fit] | 12.6 µM [rising, partial curve]
52 | OC(CON=C1c2ccccc2-c2ccccc21)CN1CCNCC1 (configuration not stated) |  | 31.6 µM [rising, single point]
53 | CC(=O)Nc1ccc(C(=O)Nc2cc(C(F)(F)F)ccc2-n2cnc3ccccc32)cc1 | 12.6 µM [rising, single point] | 17.8 µM [rising, single point]

Source: PubChem BioAssay AID1487 (National Center for Advancing Translational Sciences (NCATS), 2009)
